According to PMC7776573:

B1: CENP-C, endogenous (protein, UniProt Q9VHP9 1-1411)
chain: MSKPQNNDTLELDDILSQPVKDKERFAAFMMRKLAENKPAQNDNLFGNFKLDFDLDFEVPLIKKSQAKPKSKLPEVQPLGELVSKNSAATEKVNEPPVDQAPNENVPPRRSPTLSPNNRRSMRRSGNVPGSDKLRRHAIRRRSRSCGRQLLPEFEETVNLTRSISSPVNFLPEISSTPCTEKQKEEVAKNTTRVETDKPAEKPMELSQEPEPENPLQTKVTSPARNPILAAEIEQICKERQSSFHKNVLQLDYSGRAPYSRPPTPSSPSVAGLRRTYTMEKGPAPGQLLLSPSHRYDTPSKMPVVKAKRFNQELMVPDTPERQSHDPAWQSEPQPEFVVPETQPQDLGELVQTLSRSAISPIVVINTSNSNRSVRRDAVAMKSVPTSPVTALSSPPIAPSPRRSAAASPQKSIAQLPRVEENMDAIMTDDESDEHPSTVPLNLAPSGGNTTRQRRLRSSNRARATIESQESSMRLLNLHKSVNAKKSKPRKTAIPLNKAPSAPINGEQFARELTRMSNYEILDLRKRNSLNEIYPLNGHRNHRSEKLILEEEIQRELLRRNLMDEAEGLPKQQSSDDSNEDYIPVPPKTQSLRTKSNDRSQGRGRPRSTRRDLPMTTELVNYLGLSQTLETRRKSSKDGKRCLYTKGSSDHEDNDSLSPVKLPRLSKSIQIVPPPPVSLRYSQSLQNLPCSGKFDFDNVVMAAPPDFHDSVNSDAIEIAPPPPEYVVNTRGRSTSGRKSNKNDLVLPPPGYEGGQEEEHDERPSQPRCTAKELQQSTQNGRRAMENELVPPPIEYVEEENRNNEQSRRSTKNGNLVDRNTHNAVEYCEPPEPPEYDDSDHGQASILRRSGKKLQHSKQSVQKSNKEQIIAPSYENNEDYDSDEEPIYNEEYGKEESQNKNVTRRKSDKDEMASHTLECIEGPDPNWNSSCNKQNRNHQNASKSKENDKLANRSSKSQKLSNPRQNAVGTEKSVALSNRGEECTEKSSDVMESLRVNTPTPPIDQNSDDVPSRNPSPSRTLLSDDVPSTSRAALEFLQRSQNMSKSRPPDESSADVVFKKPLAPAPRAKSKKGKSEVDKLKLAKMPVEAEELNTTGIRRSKRGQVPLQMSWCHTMDPSKFNFMSGFIEPRSKNSKTKKGNLSKAKKASATKPKPTVEKNLPDNRGPLCSSTPRISEKLPGAIPHSESLGLSTLTWEETEVQAEAEKVPKKRGRPKKAVGGVQTDTEAEPEPEPEPMISSVAPLTSDQEEPDVPDEQAPYTEAALGPVVFSTPLRDEQEEASTKLMQWLRGVGDAPPSASMSDENASVSSANELIFCQVDGIDYAFYNTKEKAMLGYMRFKPYQKRSMKQAKVHPLKLLVQFGEFNVETLAVGEEKEVHSVLRVGDMIEIDRGTRYSIQNAIDKVSVLMCIRS
B2: Zwilch, endogenous (protein, UniProt Q9VA00 1-641)
chain: MSASANLANVYAELMRRCGESYTITYGAPPTYLVSMVGAAEAGKKIVLVFKEDRNGAVARLRTTPTRAAPKKEGSADLDLTGSPLKDDCLVDAIADLSIDLQLDHSNPWKLEEEYQRGIPVDKARSIVCSEFLQLAEGLGSVWFLCDGSDLGQTQLLQYEFNPTHFSRGILSYQGVRPAYLVTSQALVRHHGKTPDETLIENSYQVNPHMRLRCSWTSSAALPLLVNLNDCDVALNHTFRVGDCGPLTQDFMNQLRILVYIREDIVSYHTDVKQGVSRDPTYRCGSGIDMDELRESINQTMTDVSGLIGRYSISNAEFDIEDVVQRAKVRQLTDLTDKLWELLKCCHSYKDLKIAFSMLFQCAARCNIVNTPTNKNRLAKIITELANRRLAMPCLSGAEPLELLLEIGLEKLYKDYEFIYTESKMCSTNLLKDDSSGASMDDGSPQNLPQLRKSLHNAVRGDPTPGAGMRKTLLHHHGAVNSRSTKYAGSDDDAGFKNSHFDEHESTERISKLFQIHCTLEHLLMMHIHLNLANVYNDVCSELLKKPPKLVESIDDQLSDVMDIRLSAHYVRDHLDGKDPYSRHITMRSHNKFRELKTTFYFNSENICPPNLAQCFQCDDKEMVKERTYHSWIYHKIRSLK
B3: Zw10, endogenous (protein, UniProt Q9W4X9 1-721)
chain: MEEEAPRFNVLEEAFNGNGNGCANVEATQSAILKVLTRVNRFQMRVRKHIEDNYTEFLPNNTSPDIFLEESGSLNREIHDMLENLGSEGLDALDEANVKMAGNGRQLREILLGLGVSEHVLRIDELFQCVEEAKATKDYLVLLDLVGRLRAFIYGDDSVDGDAQVATPEVRRIFKALECYETIKVKYHVQAYMLQQSLQERFDRLVQLQCKSFPTSRCVTLQVSRDQTQLQDIVQALFQEPYNPARLCEFLLDNCIEPVIMRPVMADYSEEADGGTYVRLSLSYATKEPSSAHVRPNYKQVLENLRLLLHTLAGINCSVSRDQHVFGIIGDHVKDKMLKLLVDECLIPAVPESTEEYQTSTLCEDVAQLEQLLVDSFIINPEQDRALGQFVEKYETYYRNRMYRRVLETAREIIQRDLQDMVLVAPNNHSAEVANDPFLFPRCMISKSAQDFVKLMDRILRQPTDKLGDQEADPIAGVISIMLHTYINEVPKVHRKLLESIPQQAVLFHNNCMFFTHWVAQHANKGIESLAALAKTLQATGQQHFRVQVDYQSSILMGIMQEFEFESTHTLGSGPLKLVRQCLRQLELLKNVWANVLPETVYNATFCELINTFVAELIRRVFTLRDISAQMACELSDLIDVVLQRAPTLFREPNEVVQVLSWLKLQQLKAMLNASLMEITELWGDGVGPLTASYKSDEIKHLIRALFQDTDWRAKAITQIV

The molecules below were run against T1, GST-EVH1 (Falafel Flfl^1-168aa, containing the EVH1 domain) (Drosophila melanogaster) (UniProt Q9VFS5) (assay: affinity purification with mass spectrometry; GST, GST-EVH1 or GST-Smk-1 on beads mixed with whole cell extract of wild-type syncytial embryos in EB buffer, 2 h at 4°C; on-beads trypsin digestion and mass spectrometry; only the target purified).
T1 sequence: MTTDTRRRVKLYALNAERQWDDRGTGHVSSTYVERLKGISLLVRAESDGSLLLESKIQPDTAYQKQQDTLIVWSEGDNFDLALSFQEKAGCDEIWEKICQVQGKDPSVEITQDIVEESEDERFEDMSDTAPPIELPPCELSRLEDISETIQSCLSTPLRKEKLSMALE
In the case of Incenp, endogenous, the binding is reported as “binds”.
For Miranda, endogenous, the binding was “binds”.
In the case of B1, the binding is reported as “binds”.

The molecules below were run against T2, GST-Smk-1 (Falafel Flfl^169-361aa, containing the Smk-1 domain) (Drosophila melanogaster) (UniProt Q9VFS5) in the same assay as above.
T2 sequence: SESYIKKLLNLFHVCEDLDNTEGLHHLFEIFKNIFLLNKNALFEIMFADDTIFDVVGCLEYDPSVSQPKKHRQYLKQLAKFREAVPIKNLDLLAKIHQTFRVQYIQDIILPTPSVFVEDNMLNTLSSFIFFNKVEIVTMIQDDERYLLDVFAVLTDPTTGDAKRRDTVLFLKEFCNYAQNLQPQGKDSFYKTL
With Rod, endogenous the binding was “binds”.
gamma-tubulin, endogenous was tested, and the binding was “binds”.
With “heavy chain of the motor protein dynein, endogenous” the binding was “binds”.
With B2 the binding was “binds”.
With B3 the binding was “binds”.

No constants are given. Whether binding was seen depends on the method and setting. In cells and extracts the contact can be indirect. A yes stands for co-enrichment or nearness to the bait. Other partners may have been found. Tags and fused reporters may be left off the sequences shown.
